Test results: the supplement of paper PMC11732987, “Enantioselective OTUD7B fragment discovery through chemoproteomics screening and high-throughput optimisation” (Communications Chemistry, 2025)
The list shows a part of the results. The data scatter; read single values as rough.

Protein sequences, listed by entry. Tags and fused reporters are not part of them. Lines headed by an entry give the natural chain unless they say otherwise; changes in a name come on top. Residues count along the entry.
UniProt P11717, whole entry, looked up: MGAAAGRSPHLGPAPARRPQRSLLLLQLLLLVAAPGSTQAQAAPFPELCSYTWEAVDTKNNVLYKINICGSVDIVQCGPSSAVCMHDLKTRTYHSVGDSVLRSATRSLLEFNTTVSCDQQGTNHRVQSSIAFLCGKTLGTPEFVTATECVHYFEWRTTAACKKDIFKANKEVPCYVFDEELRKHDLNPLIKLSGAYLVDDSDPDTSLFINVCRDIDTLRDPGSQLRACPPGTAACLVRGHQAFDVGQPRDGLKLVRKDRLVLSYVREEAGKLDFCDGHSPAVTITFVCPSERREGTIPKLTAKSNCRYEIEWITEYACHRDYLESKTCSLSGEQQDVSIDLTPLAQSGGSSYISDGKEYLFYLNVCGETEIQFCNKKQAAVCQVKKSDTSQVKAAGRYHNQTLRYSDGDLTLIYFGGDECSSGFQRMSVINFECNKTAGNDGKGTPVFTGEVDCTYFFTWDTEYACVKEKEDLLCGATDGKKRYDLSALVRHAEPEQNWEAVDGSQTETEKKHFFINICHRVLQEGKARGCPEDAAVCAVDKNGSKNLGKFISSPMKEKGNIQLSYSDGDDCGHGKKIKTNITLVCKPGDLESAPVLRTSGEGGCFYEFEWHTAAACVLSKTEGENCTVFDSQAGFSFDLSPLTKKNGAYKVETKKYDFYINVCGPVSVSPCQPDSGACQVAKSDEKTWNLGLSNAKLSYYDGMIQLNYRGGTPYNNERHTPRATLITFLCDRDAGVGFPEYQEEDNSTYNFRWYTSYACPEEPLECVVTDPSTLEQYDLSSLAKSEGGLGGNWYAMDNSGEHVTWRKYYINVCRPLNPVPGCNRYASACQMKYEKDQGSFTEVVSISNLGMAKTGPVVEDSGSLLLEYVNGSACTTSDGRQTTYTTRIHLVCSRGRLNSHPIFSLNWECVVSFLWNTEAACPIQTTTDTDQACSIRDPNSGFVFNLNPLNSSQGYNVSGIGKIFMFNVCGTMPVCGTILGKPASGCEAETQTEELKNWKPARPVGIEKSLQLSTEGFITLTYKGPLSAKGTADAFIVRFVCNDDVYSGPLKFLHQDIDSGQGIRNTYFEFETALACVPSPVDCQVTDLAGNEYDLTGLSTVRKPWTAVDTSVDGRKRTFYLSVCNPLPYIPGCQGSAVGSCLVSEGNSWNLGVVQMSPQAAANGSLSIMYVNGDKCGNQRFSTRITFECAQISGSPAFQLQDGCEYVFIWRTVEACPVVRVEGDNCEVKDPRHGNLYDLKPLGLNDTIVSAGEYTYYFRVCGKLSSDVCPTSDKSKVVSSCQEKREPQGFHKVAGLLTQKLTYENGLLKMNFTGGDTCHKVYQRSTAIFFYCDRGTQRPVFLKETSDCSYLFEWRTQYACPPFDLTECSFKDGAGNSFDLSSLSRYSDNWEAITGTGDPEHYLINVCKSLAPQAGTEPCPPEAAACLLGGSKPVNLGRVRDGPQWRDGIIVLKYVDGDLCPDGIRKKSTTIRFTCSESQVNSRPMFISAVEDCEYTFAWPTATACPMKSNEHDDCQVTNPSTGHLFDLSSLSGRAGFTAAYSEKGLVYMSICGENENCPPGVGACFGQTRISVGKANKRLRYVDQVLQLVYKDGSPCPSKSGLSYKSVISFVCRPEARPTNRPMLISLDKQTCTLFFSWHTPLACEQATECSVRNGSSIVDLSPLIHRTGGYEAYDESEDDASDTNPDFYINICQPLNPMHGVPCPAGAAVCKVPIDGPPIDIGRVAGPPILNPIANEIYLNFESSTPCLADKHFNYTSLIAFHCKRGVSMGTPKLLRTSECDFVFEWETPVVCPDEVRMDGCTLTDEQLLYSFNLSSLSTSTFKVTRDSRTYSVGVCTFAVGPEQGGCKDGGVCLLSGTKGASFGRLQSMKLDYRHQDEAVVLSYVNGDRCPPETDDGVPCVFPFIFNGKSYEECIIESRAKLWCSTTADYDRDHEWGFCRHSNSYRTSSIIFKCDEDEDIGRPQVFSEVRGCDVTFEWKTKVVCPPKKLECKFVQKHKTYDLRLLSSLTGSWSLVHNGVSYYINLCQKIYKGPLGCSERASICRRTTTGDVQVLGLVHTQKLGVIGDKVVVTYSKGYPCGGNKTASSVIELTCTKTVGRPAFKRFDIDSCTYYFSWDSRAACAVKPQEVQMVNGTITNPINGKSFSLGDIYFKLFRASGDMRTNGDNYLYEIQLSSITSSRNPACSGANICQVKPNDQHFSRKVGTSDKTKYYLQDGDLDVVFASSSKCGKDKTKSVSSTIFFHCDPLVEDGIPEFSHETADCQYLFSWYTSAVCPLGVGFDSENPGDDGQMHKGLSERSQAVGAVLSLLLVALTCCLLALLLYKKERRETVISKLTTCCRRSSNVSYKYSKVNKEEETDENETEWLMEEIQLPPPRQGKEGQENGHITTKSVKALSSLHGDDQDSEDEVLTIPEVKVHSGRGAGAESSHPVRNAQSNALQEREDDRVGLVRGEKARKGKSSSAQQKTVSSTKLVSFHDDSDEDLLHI
UniProt P34932: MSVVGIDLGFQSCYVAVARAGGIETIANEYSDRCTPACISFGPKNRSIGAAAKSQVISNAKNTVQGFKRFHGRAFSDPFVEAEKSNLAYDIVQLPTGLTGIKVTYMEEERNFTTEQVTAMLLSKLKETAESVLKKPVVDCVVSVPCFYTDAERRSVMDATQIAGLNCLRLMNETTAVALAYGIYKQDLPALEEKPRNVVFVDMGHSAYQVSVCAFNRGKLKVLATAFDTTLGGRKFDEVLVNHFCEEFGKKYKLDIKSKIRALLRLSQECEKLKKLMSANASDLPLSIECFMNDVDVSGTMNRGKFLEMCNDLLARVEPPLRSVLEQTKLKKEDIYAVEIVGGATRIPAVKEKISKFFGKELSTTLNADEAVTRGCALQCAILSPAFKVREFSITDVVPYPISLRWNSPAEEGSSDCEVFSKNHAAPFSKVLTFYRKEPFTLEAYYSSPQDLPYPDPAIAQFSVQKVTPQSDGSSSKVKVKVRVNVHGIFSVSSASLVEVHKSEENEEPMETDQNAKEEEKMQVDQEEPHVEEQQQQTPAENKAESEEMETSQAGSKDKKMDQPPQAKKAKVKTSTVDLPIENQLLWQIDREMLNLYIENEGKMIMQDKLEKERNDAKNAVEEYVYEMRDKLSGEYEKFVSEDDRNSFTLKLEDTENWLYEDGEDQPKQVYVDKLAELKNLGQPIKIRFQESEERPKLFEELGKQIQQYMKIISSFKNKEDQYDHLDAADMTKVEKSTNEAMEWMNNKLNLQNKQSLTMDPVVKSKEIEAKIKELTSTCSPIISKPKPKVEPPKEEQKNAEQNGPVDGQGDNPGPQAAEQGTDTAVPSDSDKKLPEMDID
UniProt Q92506: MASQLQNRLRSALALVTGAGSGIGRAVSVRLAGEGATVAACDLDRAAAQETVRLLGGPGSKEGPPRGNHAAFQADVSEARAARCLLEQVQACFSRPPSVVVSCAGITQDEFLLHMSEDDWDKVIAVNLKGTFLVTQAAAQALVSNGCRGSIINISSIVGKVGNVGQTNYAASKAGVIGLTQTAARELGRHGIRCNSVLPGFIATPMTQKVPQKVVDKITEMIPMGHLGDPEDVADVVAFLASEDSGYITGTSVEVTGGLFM
UniProt Q9Y6K9, whole entry, looked up: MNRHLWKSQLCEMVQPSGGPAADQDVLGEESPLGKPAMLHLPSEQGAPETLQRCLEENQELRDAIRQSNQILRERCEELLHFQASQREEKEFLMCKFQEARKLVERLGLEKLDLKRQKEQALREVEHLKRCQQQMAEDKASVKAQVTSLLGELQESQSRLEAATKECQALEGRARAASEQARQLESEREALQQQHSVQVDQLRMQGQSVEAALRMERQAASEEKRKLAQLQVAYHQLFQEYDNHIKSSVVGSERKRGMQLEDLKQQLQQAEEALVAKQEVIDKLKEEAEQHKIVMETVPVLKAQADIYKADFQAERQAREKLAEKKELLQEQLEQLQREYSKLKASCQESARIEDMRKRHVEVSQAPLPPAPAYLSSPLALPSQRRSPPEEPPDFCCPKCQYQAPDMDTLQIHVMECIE
UniProt Q96RY7: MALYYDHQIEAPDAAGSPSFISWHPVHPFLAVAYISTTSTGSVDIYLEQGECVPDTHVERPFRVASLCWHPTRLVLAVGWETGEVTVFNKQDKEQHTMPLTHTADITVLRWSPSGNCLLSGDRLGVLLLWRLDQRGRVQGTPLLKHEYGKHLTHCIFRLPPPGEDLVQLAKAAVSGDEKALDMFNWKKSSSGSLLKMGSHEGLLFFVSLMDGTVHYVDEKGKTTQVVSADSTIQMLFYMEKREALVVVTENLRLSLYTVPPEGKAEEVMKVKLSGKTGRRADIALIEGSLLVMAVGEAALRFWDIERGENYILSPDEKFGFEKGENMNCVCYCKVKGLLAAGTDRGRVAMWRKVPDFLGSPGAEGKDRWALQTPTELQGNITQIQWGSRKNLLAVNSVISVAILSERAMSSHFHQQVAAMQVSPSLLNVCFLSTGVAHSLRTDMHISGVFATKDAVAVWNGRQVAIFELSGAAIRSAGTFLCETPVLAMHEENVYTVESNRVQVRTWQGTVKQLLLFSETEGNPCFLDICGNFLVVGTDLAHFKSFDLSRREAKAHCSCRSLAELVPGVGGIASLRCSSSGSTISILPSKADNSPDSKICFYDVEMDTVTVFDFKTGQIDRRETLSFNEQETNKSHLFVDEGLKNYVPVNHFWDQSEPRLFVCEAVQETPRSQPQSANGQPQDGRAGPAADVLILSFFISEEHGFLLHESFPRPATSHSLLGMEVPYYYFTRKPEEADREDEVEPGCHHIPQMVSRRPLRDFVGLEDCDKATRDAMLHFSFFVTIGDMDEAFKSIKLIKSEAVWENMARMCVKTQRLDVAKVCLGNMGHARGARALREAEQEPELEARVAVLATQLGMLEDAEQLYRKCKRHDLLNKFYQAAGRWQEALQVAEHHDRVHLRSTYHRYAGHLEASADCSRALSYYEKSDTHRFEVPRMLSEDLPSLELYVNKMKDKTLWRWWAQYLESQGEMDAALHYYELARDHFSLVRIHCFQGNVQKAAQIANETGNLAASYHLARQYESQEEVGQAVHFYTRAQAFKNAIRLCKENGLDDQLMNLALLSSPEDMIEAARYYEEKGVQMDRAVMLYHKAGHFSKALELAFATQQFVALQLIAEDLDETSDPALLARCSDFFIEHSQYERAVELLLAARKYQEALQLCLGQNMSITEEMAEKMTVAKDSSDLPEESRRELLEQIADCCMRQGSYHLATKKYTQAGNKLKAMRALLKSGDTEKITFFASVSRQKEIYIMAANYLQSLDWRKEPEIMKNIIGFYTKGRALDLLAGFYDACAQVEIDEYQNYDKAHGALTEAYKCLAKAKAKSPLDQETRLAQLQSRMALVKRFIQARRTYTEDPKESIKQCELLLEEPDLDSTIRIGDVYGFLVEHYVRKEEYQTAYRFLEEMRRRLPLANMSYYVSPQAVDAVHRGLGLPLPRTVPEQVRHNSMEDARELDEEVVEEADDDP
UniProt Q96HW7, whole entry, looked up: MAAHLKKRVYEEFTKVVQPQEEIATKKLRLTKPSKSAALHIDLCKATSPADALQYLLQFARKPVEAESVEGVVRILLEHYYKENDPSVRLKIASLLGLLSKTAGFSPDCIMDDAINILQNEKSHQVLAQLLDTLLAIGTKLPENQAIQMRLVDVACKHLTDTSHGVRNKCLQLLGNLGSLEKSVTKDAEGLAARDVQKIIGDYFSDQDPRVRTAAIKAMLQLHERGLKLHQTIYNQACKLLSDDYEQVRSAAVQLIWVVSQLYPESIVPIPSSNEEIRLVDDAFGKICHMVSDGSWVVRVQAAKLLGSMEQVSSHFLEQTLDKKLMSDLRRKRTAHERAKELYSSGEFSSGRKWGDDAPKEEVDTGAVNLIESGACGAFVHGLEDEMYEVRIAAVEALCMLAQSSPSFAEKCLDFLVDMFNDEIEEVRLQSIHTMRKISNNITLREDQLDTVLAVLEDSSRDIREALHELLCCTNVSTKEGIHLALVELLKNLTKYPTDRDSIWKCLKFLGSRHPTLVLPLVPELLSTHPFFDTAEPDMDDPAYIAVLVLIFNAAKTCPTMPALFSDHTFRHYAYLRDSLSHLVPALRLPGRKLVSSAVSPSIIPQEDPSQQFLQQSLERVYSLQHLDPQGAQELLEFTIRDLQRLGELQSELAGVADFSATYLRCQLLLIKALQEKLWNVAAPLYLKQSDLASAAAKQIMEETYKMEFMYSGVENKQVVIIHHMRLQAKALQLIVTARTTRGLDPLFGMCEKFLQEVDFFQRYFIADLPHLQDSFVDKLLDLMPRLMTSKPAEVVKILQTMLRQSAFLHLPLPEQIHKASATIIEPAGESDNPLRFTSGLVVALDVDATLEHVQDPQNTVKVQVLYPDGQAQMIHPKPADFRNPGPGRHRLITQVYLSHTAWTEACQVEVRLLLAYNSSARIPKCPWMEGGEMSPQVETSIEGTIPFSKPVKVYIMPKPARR
UniProt Q96HW7, 102-122: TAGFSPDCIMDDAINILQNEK
UniProt Q8IU81, 340-368: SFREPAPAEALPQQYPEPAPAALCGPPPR
UniProt O95373, 72-92: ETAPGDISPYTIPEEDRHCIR

Experiments:
[1] = compound: ClCC(=O)N[C@@H]1CCCc2ccccc12; assay: log2 mean competition ratio of IA-DTB cysteine labelling (DMSO/compound) (log2 ratio); higher = stronger cysteine engagement by compound; conditions: treatment time: 4 h, cell line lysate: HEK293T
Method: (§1)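 IA-DTB competitive cysteine chemoproteomics in HEK293T RIPA lysate. Lysates were treated with compound 29 or 30 at 50 or 200 µM for 4 h, then IA-DTB (500 µM, 1 h), trypsin-digested, NeutrAvidin-enriched and analysed by diaPASEF. Competition ratio = intensity DMSO / intensity compound (n=4 treated, n=64 DMSO); binding: mean log2 CR ≥ 1 and p ≤ 0.05 plus QC filters. Target is the cysteine site.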

[2] = compound: ClCC(=O)N[C@H]1CCCc2ccccc12; assay: as above; conditions: treatment time: 4 h, cell line lysate: HEK293T
Method: as §1

Target | log2 mean competition ratio ([1]; 50 µM) | log2 mean competition ratio ([1]; 200 µM) | log2 mean competition ratio ([2]; 50 µM) | log2 mean competition ratio ([2]; 200 µM)
IGF2R C2096 (UniProt P11717) | 0.0288 | 0.328 | -0.463 | 0.631
HSPA4L C270 (UniProt O95757) | -0.117 | -0.034 | 0.115 | 0.0948
HSPA4 C245 (UniProt P34932) | -0.383 | 0.139 | -0.156 | -0.00913
INPPL1 C215 (UniProt O15357) | 0.18 | 0.0528 | 0.000763 | 0.0744
HPS3 C52 (UniProt Q969F9) | 0.0702 | -0.219 | -0.311 | -0.106
IQGAP1 C494 (UniProt P46940) | -0.563 | 0.265 | 0.0862 | 0.362
IGF2R C1217 (UniProt P11717) | 0.165 | -0.0224 | -0.0497 | 0.141
HSD17B8 C41 (UniProt Q92506) | -0.0484 | 0.0586 | -0.00654 | 0.174
IKBKG C95 (UniProt Q9Y6K9) | 0.133 | -0.173 | -0.331 | -0.0936
IFT140 C577 (UniProt Q96RY7) | 0.128 | -0.214 | 0.0584 | -0.0672
HTT C2747 (UniProt P42858) | 0.122 | 0.466 | -0.562 | 0.152
INTS4 C156 (UniProt Q96HW7) | -0.113 | 0.27 | -0.199 | 0.125
INF2 C1029 (UniProt Q27J81) | 0.0365 | -0.177 | -0.239 | -0.253
IRAK4 C13 (UniProt Q9NWZ3) | 0.183 | 0.503 | 0.228 | 0.274
IPO4 C870 (UniProt Q8TEX9) | -0.194 | 0.169 | -0.0525 | 0.262
IPO5 C266 | 0.497 | -0.0259 | 0.246 | -0.00618
IKBKG C131 (UniProt Q9Y6K9) | 0.282 | -0.161 | 0.478 | 0.00631
IGF2R C1282 (UniProt P11717) | -0.0766 | 0.0229 | -0.148 | 0.196
HTT C1524 (UniProt P42858) | 0.383 | 0.174 | 0.349 | 0.244
IRAK1 C608 (UniProt P51617) | 0.488 | 0.374 | 0.134 | 0.274
IFT140 C1129 (UniProt Q96RY7) | -0.199 | 0.0943 | -0.534 | 0.0769
IFT140 C917 (UniProt Q96RY7) | -0.143 | 0.259 | -0.264 | -0.225
INTS7 C177 (UniProt Q9NVH2) | -0.0781 | -0.167 | 0.321 | -0.0571

Not a retest: entries from further up.
Target | log2 mean competition ratio ([1]; 50 µM) | log2 mean competition ratio ([1]; 200 µM) | log2 mean competition ratio ([2]; 50 µM) | log2 mean competition ratio ([2]; 200 µM)
HSPA4L C270 (UniProt O95757) | -0.117 | -0.034 | 0.115 | 0.0948
HSPA4 C245 (UniProt P34932) | -0.383 | 0.139 | -0.156 | -0.00913
INPPL1 C215 (UniProt O15357) | 0.18 | 0.0528 | 0.000763 | 0.0744
HPS3 C52 (UniProt Q969F9) | 0.0702 | -0.219 | -0.311 | -0.106
IQGAP1 C494 (UniProt P46940) | -0.563 | 0.265 | 0.0862 | 0.362
IGF2R C1217 (UniProt P11717) | 0.165 | -0.0224 | -0.0497 | 0.141
HSD17B8 C41 (UniProt Q92506) | -0.0484 | 0.0586 | -0.00654 | 0.174
IKBKG C95 (UniProt Q9Y6K9) | 0.133 | -0.173 | -0.331 | -0.0936
IFT140 C577 (UniProt Q96RY7) | 0.128 | -0.214 | 0.0584 | -0.0672
HTT C2747 (UniProt P42858) | 0.122 | 0.466 | -0.562 | 0.152
INTS4 C156 (UniProt Q96HW7) | -0.113 | 0.27 | -0.199 | 0.125

More records follow:

Target | log2 mean competition ratio ([1]; 50 µM) | log2 mean competition ratio ([1]; 200 µM) | log2 mean competition ratio ([2]; 50 µM) | log2 mean competition ratio ([2]; 200 µM)
HSDL2 C166 (UniProt Q6YN16) | 0.254 | -0.246 | -0.024 | -0.349
IRF2BP1 C363 (UniProt Q8IU81) | 0.0149 | -0.0481 | 0.359 | 0.0394
IDH1 C269 (UniProt O75874) | 0.633 | 0.251 | 0.551 | 0.339
IQCC C248 | -0.313 | 0.135 | -0.386 | 0.19
HUWE1 C19 | -0.299 | 0.715 | -0.233 | 0.767
INTS4 C109 (UniProt Q96HW7) | -0.148 | 0.282 | 0.319 | 0.375
HSPA4L C540 (UniProt O95757) | 0.243 | -0.251 | 0.173 | -0.32
IFT80 C106 (UniProt Q9P2H3) | 0.486 | 0.00345 | 0.476 | -0.134
IPO5 C972 | -0.134 | 0.113 | -0.238 | 0.0895
IP6K1 C248 (UniProt Q92551) | 0.419 | -0.357 | 0.624 | -0.268
HSD17B4 C425 (UniProt P51659) | 0.00849 | -0.201 | -0.438 | -0.196
INTS10 C387 (UniProt Q9NVR2) | -0.222 | -0.0897 | -0.0414 | 0.167
IDH2 C418 (UniProt P48735) | 0.236 | 0.0248 | -0.216 | -0.171
HSPA4 C270 (UniProt P34932) | -0.129 | 0.369 | -0.0514 | 0.358
IGF2BP3 C194 (UniProt O00425) | -0.464 | 0.399 | -0.146 | 0.505
INPP4A C854 (UniProt Q96PE3) | 0.139 | 0.161 | -0.267 | 0.176
IPO7 C90 (UniProt O95373) | -0.387 | 0.301 | -0.199 | 0.221
HUWE1 C1252 | 0.0414 | 0.17 | 0.458 | 0.219
INTS9 C578 (UniProt Q9NV88) | -0.0456 | 0.334 | 0.199 | 0.489
INTS3 C80 (UniProt Q68E01) | -0.2 | 0.0963 | -0.0552 | 0.177
INTS10 C555 (UniProt Q9NVR2) | -0.194 | 0.129 | -0.33 | 0.268
HSPD1 C237 (UniProt P10809) | -0.144 | -0.162 | -0.229 | -0.0971
